Assay results reported in doi:10.1101/2020.09.23.309831.
No constants are given. Whether binding was seen depends on the method and setting. Binding seen in cells or lysates may run through a third protein. Some results given as binding are weak or reduced against the parent protein; the word gives no strength.

By UniProt entry, the sequences of proteins in these tests, tags left out.
UniProt Q8X1E6, whole entry: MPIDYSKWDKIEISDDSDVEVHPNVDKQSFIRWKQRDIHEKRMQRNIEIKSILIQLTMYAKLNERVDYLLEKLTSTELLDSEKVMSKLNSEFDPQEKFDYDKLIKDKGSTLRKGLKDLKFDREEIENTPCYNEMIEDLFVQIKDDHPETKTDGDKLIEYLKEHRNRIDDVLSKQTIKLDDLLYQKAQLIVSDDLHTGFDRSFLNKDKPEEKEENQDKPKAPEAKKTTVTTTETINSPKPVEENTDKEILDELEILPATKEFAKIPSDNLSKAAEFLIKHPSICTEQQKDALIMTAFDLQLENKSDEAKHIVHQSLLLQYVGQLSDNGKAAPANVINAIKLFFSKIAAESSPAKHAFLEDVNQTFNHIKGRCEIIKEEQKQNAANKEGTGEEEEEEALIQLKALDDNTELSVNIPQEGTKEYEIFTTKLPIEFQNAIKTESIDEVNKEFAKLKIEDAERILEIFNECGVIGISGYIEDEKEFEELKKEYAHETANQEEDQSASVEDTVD
UniProt P46598, whole entry: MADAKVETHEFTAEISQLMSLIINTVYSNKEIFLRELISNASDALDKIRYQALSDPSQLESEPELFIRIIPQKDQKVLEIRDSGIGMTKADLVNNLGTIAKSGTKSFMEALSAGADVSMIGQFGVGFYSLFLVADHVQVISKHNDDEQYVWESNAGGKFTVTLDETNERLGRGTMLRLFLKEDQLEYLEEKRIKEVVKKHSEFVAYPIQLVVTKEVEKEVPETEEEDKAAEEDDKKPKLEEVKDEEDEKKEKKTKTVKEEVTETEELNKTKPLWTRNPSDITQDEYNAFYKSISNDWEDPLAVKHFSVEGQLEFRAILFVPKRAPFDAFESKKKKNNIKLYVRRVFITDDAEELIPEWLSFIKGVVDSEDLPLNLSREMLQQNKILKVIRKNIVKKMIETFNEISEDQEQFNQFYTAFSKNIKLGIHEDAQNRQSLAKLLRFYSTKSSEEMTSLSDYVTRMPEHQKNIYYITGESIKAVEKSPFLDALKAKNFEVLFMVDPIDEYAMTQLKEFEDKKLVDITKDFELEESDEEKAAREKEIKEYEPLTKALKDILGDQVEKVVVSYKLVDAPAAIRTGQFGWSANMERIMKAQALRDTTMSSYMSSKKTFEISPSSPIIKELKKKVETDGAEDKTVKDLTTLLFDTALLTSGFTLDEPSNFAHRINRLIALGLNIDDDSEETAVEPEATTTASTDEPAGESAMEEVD

Tests used:
Test in all cases: co-IP
[1] = molecular target: TAP-tagged Sti1 (Candida albicans co-chaperone) (C. albicans)
[2] = molecular target: HA-tagged Sba1 (Candida albicans co-chaperone) (C. albicans)
[3] = molecular target: HA-tagged Aha1 (Candida albicans co-chaperone) (C. albicans)
[4] = molecular target: HA-tagged Cdc37 (Candida albicans co-chaperone) (C. albicans) (UniProt Q8X1E6)

Measured: binding

Candida albicans heat shock protein 90 (Hsp90), wild type (from UniProt P46598 1-707)
binds: all assays above
